Results published in patent US20260234255A1.
These are yes or no findings as the source states them, for the method shown. Some results given as binding are weak or reduced against the parent protein; the word gives no strength.

B1: IgG1-CD30-HRS-3-FEAR (antibody, V domains shown)
VH: QVQLQQSGAELARPGASVKMSCKASGYTFTTYTIHWVRQRPGHDLEWIGYINPSSGYSDYNQNFKGKTTLTADKSSNTAYMQLNSLTSEDSAVYYCARRADYGNYEYTWFAYWGQGTTVTVSS
VL: DIVMTQSPKFMSTSVGDRVTVTCKASQNVGTNVAWFQQKPGQSPKVLIYSASYRYSGVPDRFTGSGSGTDFTLTISNVQSEDLAEYFCQQYHTYPLTFGGGTKLEINR
B2: IgG1-CD30-T215-FEAR (antibody, V domains shown)
VH: QVTLKESGPGILQPSQTLSLTCSFSGFSLSVSGMGVSWIRQPSGKGLEWLAHIHWDDDRRSNPSLRSRLTISKDTSNNQVFLKITSVDTADTATYYCARRPDLYGNYFFFDFWGQGTTLTVSS
VL: DIVMTQSQKFMSTSVGDRVSVTCKASQNVFTNVAWYQQKLGQSPKPLIYSASYRYSGVPDRFTGSGSGTDFTLTISDVQSEDLAEYFCQQYNSYPVTFGAGTKLELKR
B3: IgG1-CD30-HeFi-I-FEAR (antibody, V domains shown)
VH: EVKLVESGGGLVQPGGSLRLSCATSGFTFSDYYMNWVRQPPGKALEWLGFIRNKANGYTTEFSASVMGRFTISRDDSQSILYLQMNTLRAEDSATYYCARDPPYGNPHYYAMDYWGQGTSVTVSS
VL: DIVLTQSPASLAVSLGQRATISCRASKSVSASGYNYMHWYQQKAGQPPKLLIHLASNLESGVPARFSGSGSGTDFTLNIHPVEEEDASTYYCQHSGELPFTFGSGTKLEIKR

Tests used:
[1] = target: rhesus monkey (Macaca mulatta) CD30 (rhesus monkey); experiment: flow cytometry, Expi293F cells transfected with mmCD30
[2] = target: rhesus monkey (Macaca mulatta) CD30 (rhesus monkey); experiment: flow cytometry, Expi293F cells transfected with rhesus monkey CD30

| Binder | binding [1] | binding [2] |
| --- | --- | --- |
| B1 | binds | binds |
| B2 | binds | binds |
| B3 | no binding (tested: 0.005 to 10 µg/mL) | no binding (tested: 10 µg/mL) |
